Taken from: PubChem BioAssay AID652243 (Drosophila RNAi Screening Center, 2013)

- Purpose: 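Knock-downs that decrease or increase androgen receptor reporter signal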 (primary screen)
- System: Drosophila S2R+ cells
- Reagent: long dsRNA against Drosophila genes
- Time to read-out: 72 h (48 h, then 24 h hormone)
- Conditions: synthetic androgen R1881 at 10 nM for 24 h
- Read-out: 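Per-well raw luminescence of the androgen-driven firefly reporter and of the Renilla control, two replicates each, without normalisation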
- Scale: firefly reporter light: higher = more light from androgen-responsive reporter; Renilla control light: higher = more constitutive control signal (cell number, transfection)
- Active means: 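Across duplicate plates, a knock-down whose log firefly/Renilla ratio shifted a set fold down or up from the GFP/LacZ control mean was a hit; the downward cut appears as both 1.5 and 3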
- Meaning of the calls: active = hit: reporter lowered or raised; inactive = no hit
The deposit covers about 24,000 reagents; shown is a random part of those with a known target gene and a result. In the full data, 246 (1%) got an active call. 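Plates not normalised; calls are printed but the firefly/Renilla ratio behind them is not deposited; fold cut for lowering reported inconsistently.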 Raw values vary from plate to plate and are shown uncorrected. Entries without a mark were called inactive. Reagent sequences are not shown. The record does not give: the amount of reagent.

CG34377 [DRSC13559] — firefly reporter light, replicate 1: 7.13e5; firefly reporter light, replicate 2: 7.30e5; Renilla control light, replicate 1: 1.56e6; Renilla control light, replicate 2: 1.21e6
CG34377 [DRSC14708] — firefly reporter light, replicate 1: 2.56e5; firefly reporter light, replicate 2: 3.19e5; Renilla control light, replicate 1: 3.47e6; Renilla control light, replicate 2: 4.17e6
CG34377 [DRSC14709] — firefly reporter light, replicate 1: 2.15e5; firefly reporter light, replicate 2: 3.14e5; Renilla control light, replicate 1: 3.54e6; Renilla control light, replicate 2: 3.72e6
CG34377 [DRSC14710] — firefly reporter light, replicate 1: 3.17e5; firefly reporter light, replicate 2: 3.53e5; Renilla control light, replicate 1: 3.56e6; Renilla control light, replicate 2: 3.99e6
CG34377 [DRSC14711] — firefly reporter light, replicate 1: 2.73e5; firefly reporter light, replicate 2: 2.92e5; Renilla control light, replicate 1: 3.25e6; Renilla control light, replicate 2: 3.52e6
CG4751 [DRSC02776] — firefly reporter light, replicate 1: 9.08e5; firefly reporter light, replicate 2: 1.27e6; Renilla control light, replicate 1: 1.62e6; Renilla control light, replicate 2: 1.69e6
stas (Stasimon) [DRSC20104] — firefly reporter light, replicate 1: 1.44e5; firefly reporter light, replicate 2: 79837; Renilla control light, replicate 1: 1.08e6; Renilla control light, replicate 2: 8.32e5
Ilp5 (Insulin-like peptide 5) [DRSC08998] — firefly reporter light, replicate 1: 2.54e5; firefly reporter light, replicate 2: 1.92e5; Renilla control light, replicate 1: 2.89e5; Renilla control light, replicate 2: 2.02e5
Pebp1 (Phosphatidylethanolamine-binding protein 1) [DRSC15354] — firefly reporter light, replicate 1: 2.74e5; firefly reporter light, replicate 2: 3.50e5; Renilla control light, replicate 1: 3.58e6; Renilla control light, replicate 2: 3.86e6
CG18581 [DRSC10324] — firefly reporter light, replicate 1: 1.05e5; firefly reporter light, replicate 2: 88254; Renilla control light, replicate 1: 7.04e5; Renilla control light, replicate 2: 7.99e5
CG13043 [DRSC09924] — firefly reporter light, replicate 1: 2.86e5; firefly reporter light, replicate 2: 2.53e5; Renilla control light, replicate 1: 2.76e6; Renilla control light, replicate 2: 2.17e6
CG13043 [DRSC25440] — firefly reporter light, replicate 1: 7.00e5; firefly reporter light, replicate 2: 7.63e5; Renilla control light, replicate 1: 1.48e6; Renilla control light, replicate 2: 1.46e6
Pcmt (Protein-L-isoaspartate (D-aspartate) O-methyltransferase) [DRSC12363] — firefly reporter light, replicate 1: 57217; firefly reporter light, replicate 2: 57709; Renilla control light, replicate 1: 1.16e6; Renilla control light, replicate 2: 9.61e5
Sprn (Spermitin) [DRSC10132] — firefly reporter light, replicate 1: 2.16e5; firefly reporter light, replicate 2: 1.49e5; Renilla control light, replicate 1: 2.13e6; Renilla control light, replicate 2: 1.74e6

Part of the list above, reformatted:
gene,dsRNA,"firefly reporter light, replicate 1","firefly reporter light, replicate 2","Renilla control light, replicate 1","Renilla control light, replicate 2"
CG34377,DRSC14711,2.73e5,2.92e5,3.25e6,3.52e6
CG4751,DRSC02776,9.08e5,1.27e6,1.62e6,1.69e6
